Values from PubChem BioAssay AID1259308 (NCATS, 2017)

- Purpose: 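Genes whose loss raises luciferase production in HEK293 cells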 (primary screen)
- Cells: human HEK293 embryonic kidney cells stably expressing firefly luciferase (HEK-CMV-Luc2-Hygro)
- Reagents: single siRNA against human genes, 0.8 pmol siRNA per well
- Time to read-out: 72 h
- Detection: 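Luciferase light (ONE-Glo) measured on one replicate plate set and viability (CellTiter-Glo) on the other, scaled to a negative control siRNA, with robust z-scores and luciferase per cell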
- Direction: total luciferase, z-score: higher = more reporter protein produced
- Call rule: 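Active when the median/MAD z-score for overall luciferase is greater than 3; a gene was taken forward for validation with new siRNAs if at least two of its three siRNAs passed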
- Calls: active = raised luciferase; inactive = no rise
Shown is an unselected part of about 59,000 deposited reagents. About 1,510 of all reagents (2.6%) count as active. 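Calls use total luciferase alone and ignore viability, so some active siRNAs may act by altering cell number.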 A number with no mark means an inactive call. Reagents against one gene are numbered here. Further read-outs or replicates are left out here.

target gene	siRNA no.	total luciferase, z-score
OTUD5 (OTU deubiquitinase 5)	1	0.301
OTUD5 (OTU deubiquitinase 5)	2	-0.816
OTUD5 (OTU deubiquitinase 5)	3	-1.67
CA14 (carbonic anhydrase 14)	1	-0.0274
CA14 (carbonic anhydrase 14)	2	2.32
CA14 (carbonic anhydrase 14)	3	-0.331
JRK (Jrk helix-turn-helix protein)	1	-0.14
JRK (Jrk helix-turn-helix protein)	2	0.284
JRK (Jrk helix-turn-helix protein)	3	0.383
SNCAIP (synuclein alpha interacting protein)	1	1.53
SNCAIP (synuclein alpha interacting protein)	2	0.525
SNCAIP (synuclein alpha interacting protein)	3	4.74 (active)
MEX3A (mex-3 RNA binding family member A)	1	0.171
MEX3A (mex-3 RNA binding family member A)	2	-0.387
MEX3A (mex-3 RNA binding family member A)	3	-0.216
MPZ (myelin protein zero)	1	-0.309
MPZ (myelin protein zero)	2	1.27
MPZ (myelin protein zero)	3	-0.768
VPS54 (VPS54 subunit of GARP complex)	1	0.905
VPS54 (VPS54 subunit of GARP complex)	2	-0.592
VPS54 (VPS54 subunit of GARP complex)	3	0.391
BRI3 (brain protein I3)	1	0.218
BRI3 (brain protein I3)	2	-1.4
BRI3 (brain protein I3)	3	0.555
CD69 (CD69 molecule)	1	-0.234
CD69 (CD69 molecule)	2	2.31
CD69 (CD69 molecule)	3	0.138
VGLL3 (vestigial like family member 3)	1	1.08
VGLL3 (vestigial like family member 3)	2	0.584
VGLL3 (vestigial like family member 3)	3	2.89
AP2S1 (adaptor related protein complex 2 subunit sigma 1)	1	2.07
AP2S1 (adaptor related protein complex 2 subunit sigma 1)	2	-0.237
AP2S1 (adaptor related protein complex 2 subunit sigma 1)	3	0.368
LY6K (lymphocyte antigen 6 family member K)	1	-2.3
LY6K (lymphocyte antigen 6 family member K)	2	0.289
LY6K (lymphocyte antigen 6 family member K)	3	0.407
PHACTR3 (phosphatase and actin regulator 3)	1	1.08
PHACTR3 (phosphatase and actin regulator 3)	2	1.1
PHACTR3 (phosphatase and actin regulator 3)	3	0.58
TXNDC9 (thioredoxin domain containing 9)	1	1.11
TXNDC9 (thioredoxin domain containing 9)	2	0.103
TXNDC9 (thioredoxin domain containing 9)	3	-0.376
APOA2 (apolipoprotein A2)	1	-1.2
APOA2 (apolipoprotein A2)	2	-0.448
APOA2 (apolipoprotein A2)	3	0.324
OR11A1 (olfactory receptor family 11 subfamily A member 1)	1	-1.16
OR11A1 (olfactory receptor family 11 subfamily A member 1)	2	-0.92
OR11A1 (olfactory receptor family 11 subfamily A member 1)	3	0.911
ULK2 (unc-51 like autophagy activating kinase 2)	1	-1.05
ULK2 (unc-51 like autophagy activating kinase 2)	2	-0.372
ULK2 (unc-51 like autophagy activating kinase 2)	3	0.0976
SH3GL1 (SH3 domain containing GRB2 like 1, endophilin A2)	1	-0.611
SH3GL1 (SH3 domain containing GRB2 like 1, endophilin A2)	2	0.283
SH3GL1 (SH3 domain containing GRB2 like 1, endophilin A2)	3	-0.205
KDELR1 (KDEL endoplasmic reticulum protein retention receptor 1)	1	-0.182
KDELR1 (KDEL endoplasmic reticulum protein retention receptor 1)	2	-0.506
KDELR1 (KDEL endoplasmic reticulum protein retention receptor 1)	3	0.444

Sorted by “total luciferase, z-score” (lowest first): 8 of the entries above.
target gene	siRNA no.	total luciferase, z-score
MPZ (myelin protein zero)	3	-0.768
MEX3A (mex-3 RNA binding family member A)	2	-0.387
MPZ (myelin protein zero)	1	-0.309
MEX3A (mex-3 RNA binding family member A)	3	-0.216
MEX3A (mex-3 RNA binding family member A)	1	0.171
VPS54 (VPS54 subunit of GARP complex)	1	0.905
MPZ (myelin protein zero)	2	1.27
SNCAIP (synuclein alpha interacting protein)	3	4.74 (active)
